PubChem BioAssay AID652243 – Drosophila RNAi Screening Center – 2013

Screen: 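Fly regulators of androgen-dependent reporter output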 (primary screen)
System: Drosophila S2R+ cells
Reagent: long dsRNA against Drosophila genes
Time to read-out: 72 h (48 h, then 24 h hormone)
Treatment: synthetic androgen R1881 at 10 nM for 24 h
Read-out: 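Per-well raw luminescence of the androgen-driven firefly reporter and of the Renilla control, two replicates each, without normalisation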
Direction: firefly reporter light: higher = more light from androgen-responsive reporter; Renilla control light: higher = more constitutive control signal (cell number, transfection)
Hit rule: 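Hit when the log firefly-to-Renilla ratio dropped or increased by a fixed fold versus the mean of GFP or LacZ controls across duplicate plates; lowering cut given as 1.5 and as 3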
Calls: active = hit: reporter lowered or raised; inactive = no hit
The deposit covers about 24,000 reagents; shown is a random part of those with a known target gene and a result. Of all reagents, 246 (1%) were called active. 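Plates not normalised; calls are printed but the firefly/Renilla ratio behind them is not deposited; fold cut for lowering reported inconsistently.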 Raw values vary from plate to plate and are shown uncorrected. Names joined by + are all predicted targets of the reagent. The record does not give: the amount of reagent.

With CG15365 [DRSC23021], what does the deposit list?
firefly reporter light, replicate 1: 9.93e5; firefly reporter light, replicate 2: 1.09e6; Renilla control light, replicate 1: 8.50e5; Renilla control light, replicate 2: 9.27e5; Call: inactive

For CG17404 [DRSC15234], how do the results read?
firefly reporter light, replicate 1: 1.39e6; firefly reporter light, replicate 2: 1.36e6; Renilla control light, replicate 1: 2.81e6; Renilla control light, replicate 2: 2.72e6; Call: inactive

Which result is listed for CG13494 [DRSC04139]?
firefly reporter light, replicate 1: 4.40e5; firefly reporter light, replicate 2: 2.95e5; Renilla control light, replicate 1: 3.04e6; Renilla control light, replicate 2: 1.97e6; Call: inactive

Which result is listed for CG13494 [DRSC26588]?
firefly reporter light, replicate 1: 3.87e5; firefly reporter light, replicate 2: 2.85e5; Renilla control light, replicate 1: 6.08e5; Renilla control light, replicate 2: 7.10e5; Call: inactive

With Rnmt [DRSC03558], what was measured?
firefly reporter light, replicate 1: 1.91e5; firefly reporter light, replicate 2: 2.05e5; Renilla control light, replicate 1: 2.22e6; Renilla control light, replicate 2: 2.57e6; Call: inactive

For Arf6 [DRSC05921], what does the deposit list?
firefly reporter light, replicate 1: 62590; firefly reporter light, replicate 2: 80933; Renilla control light, replicate 1: 1.31e6; Renilla control light, replicate 2: 1.31e6; Call: inactive

With Tsen54 [DRSC10527], what was measured?
firefly reporter light, replicate 1: 96185; firefly reporter light, replicate 2: 1.27e5; Renilla control light, replicate 1: 1.31e6; Renilla control light, replicate 2: 1.11e6; Call: inactive

For Tsen54 [DRSC27583], how do the results read?
firefly reporter light, replicate 1: 4.66e5; firefly reporter light, replicate 2: 3.38e5; Renilla control light, replicate 1: 7.54e5; Renilla control light, replicate 2: 6.31e5; Call: inactive

For CG8611 [DRSC19340], how do the results read?
firefly reporter light, replicate 1: 1.20e5; firefly reporter light, replicate 2: 1.08e5; Renilla control light, replicate 1: 5.71e5; Renilla control light, replicate 2: 7.59e5; Call: inactive

For CG8611 [DRSC24619], what was measured?
firefly reporter light, replicate 1: 8.42e5; firefly reporter light, replicate 2: 7.69e5; Renilla control light, replicate 1: 9.21e5; Renilla control light, replicate 2: 1.01e6; Call: inactive

How did the screen score SIDL [DRSC16077]?
firefly reporter light, replicate 1: 93663; firefly reporter light, replicate 2: 1.15e5; Renilla control light, replicate 1: 5.98e5; Renilla control light, replicate 2: 8.33e5; Call: inactive

With asRNA:CR43476 + CG42534 [DRSC23246], how do the results read?
firefly reporter light, replicate 1: 8.66e5; firefly reporter light, replicate 2: 9.53e5; Renilla control light, replicate 1: 1.13e6; Renilla control light, replicate 2: 1.29e6; Call: inactive

Which result is listed for CG5665 [DRSC11783]?
firefly reporter light, replicate 1: 2.91e5; firefly reporter light, replicate 2: 2.02e5; Renilla control light, replicate 1: 1.95e6; Renilla control light, replicate 2: 1.19e6; Call: inactive

How did the screen score CG14569 [DRSC11730]?
firefly reporter light, replicate 1: 3.06e5; firefly reporter light, replicate 2: 2.21e5; Renilla control light, replicate 1: 3.15e6; Renilla control light, replicate 2: 2.66e6; Call: inactive

What is on record for Spn28F [DRSC03615]?
firefly reporter light, replicate 1: 1.14e5; firefly reporter light, replicate 2: 2.01e5; Renilla control light, replicate 1: 1.56e6; Renilla control light, replicate 2: 1.80e6; Call: inactive

What did the screen give for Spn28F [DRSC25759]?
firefly reporter light, replicate 1: 5.39e5; firefly reporter light, replicate 2: 5.14e5; Renilla control light, replicate 1: 1.21e6; Renilla control light, replicate 2: 7.89e5; Call: inactive

What did the screen give for CG14346 [DRSC00376]?
firefly reporter light, replicate 1: 1.29e5; firefly reporter light, replicate 2: 1.66e5; Renilla control light, replicate 1: 8.53e5; Renilla control light, replicate 2: 1.04e6; Call: inactive

With CG14346 [DRSC27555], how do the results read?
firefly reporter light, replicate 1: 2.09e5; firefly reporter light, replicate 2: 1.98e5; Renilla control light, replicate 1: 3.58e5; Renilla control light, replicate 2: 5.02e5; Call: inactive

What did the screen give for CG32582 (retired record) [DRSC19114]?
firefly reporter light, replicate 1: 9.72e5; firefly reporter light, replicate 2: 6.22e5; Renilla control light, replicate 1: 1.00e6; Renilla control light, replicate 2: 6.40e5; Call: inactive

For nopo [DRSC06918], how do the results read?
firefly reporter light, replicate 1: 8.14e5; firefly reporter light, replicate 2: 8.57e5; Renilla control light, replicate 1: 1.97e6; Renilla control light, replicate 2: 1.56e6; Call: inactive

For CG7916 [DRSC01901], what was measured?
firefly reporter light, replicate 1: 1.95e5; firefly reporter light, replicate 2: 2.32e5; Renilla control light, replicate 1: 1.13e6; Renilla control light, replicate 2: 1.66e6; Call: inactive

For snsl [DRSC00543], what was measured?
firefly reporter light, replicate 1: 2.33e5; firefly reporter light, replicate 2: 83805; Renilla control light, replicate 1: 2.36e6; Renilla control light, replicate 2: 7.85e5; Call: inactive

What is on record for snsl [DRSC25714]?
firefly reporter light, replicate 1: 7.55e5; firefly reporter light, replicate 2: 9.30e5; Renilla control light, replicate 1: 6.72e5; Renilla control light, replicate 2: 1.06e6; Call: inactive

How did the screen score CG15818 [DRSC02505]?
firefly reporter light, replicate 1: 8.19e5; firefly reporter light, replicate 2: 8.23e5; Renilla control light, replicate 1: 2.33e6; Renilla control light, replicate 2: 2.21e6; Call: inactive

For CG15818 [DRSC28515], how do the results read?
firefly reporter light, replicate 1: 3.30e5; firefly reporter light, replicate 2: 7.11e5; Renilla control light, replicate 1: 7.38e5; Renilla control light, replicate 2: 1.65e6; Call: inactive

How did the screen score CG7601 [DRSC14131]?
firefly reporter light, replicate 1: 1.13e5; firefly reporter light, replicate 2: 99350; Renilla control light, replicate 1: 9.75e5; Renilla control light, replicate 2: 7.14e5; Call: inactive

How did the screen score CG14195 [DRSC19550]?
firefly reporter light, replicate 1: 1.42e5; firefly reporter light, replicate 2: 84940; Renilla control light, replicate 1: 4.55e5; Renilla control light, replicate 2: 3.49e5; Call: inactive

Part of the list above in another layout.
{"gene knocked down": "snsl", "dsRNA": "DRSC25714", "firefly reporter light, replicate 1": 7.55e5, "firefly reporter light, replicate 2": 9.30e5, "Renilla control light, replicate 1": 6.72e5, "Renilla control light, replicate 2": 1.06e6, "Call": "inactive"}
{"gene knocked down": "CG15818", "dsRNA": "DRSC02505", "firefly reporter light, replicate 1": 8.19e5, "firefly reporter light, replicate 2": 8.23e5, "Renilla control light, replicate 1": 2.33e6, "Renilla control light, replicate 2": 2.21e6, "Call": "inactive"}
